Measurements as given in PMC8095187.

Key:
Assay in all cases: co-IP; L6 myoblasts stably expressing FLAG-Tmod3-WT or mutants, serum starved 2 hours, with or without 2 mM AICAR for 30 minutes; anti-FLAG M2 affinity gel; blots with antibodies against tropomyosin isoforms
[1] = target: T1, FLAG-Tmod3-S25A (stably expressed in L6 myoblasts) (mouse) (UniProt Q9JHJ0)
T1 sequence: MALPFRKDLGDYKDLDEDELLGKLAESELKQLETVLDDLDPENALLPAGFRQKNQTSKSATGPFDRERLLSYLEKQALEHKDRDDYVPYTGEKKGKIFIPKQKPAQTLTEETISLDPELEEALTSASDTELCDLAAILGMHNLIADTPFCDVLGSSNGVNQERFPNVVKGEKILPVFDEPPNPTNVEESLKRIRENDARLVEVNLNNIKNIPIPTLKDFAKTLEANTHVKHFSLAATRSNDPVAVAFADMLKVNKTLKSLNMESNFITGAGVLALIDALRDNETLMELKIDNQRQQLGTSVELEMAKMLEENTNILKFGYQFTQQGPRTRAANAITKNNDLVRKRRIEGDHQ

[2] = target: T2, FLAG-Tmod3-S25D (stably expressed in L6 myoblasts) (mouse) (UniProt Q9JHJ0)
T2 sequence: T1 sequence with A25D

[3] = target: T3, FLAG-Tmod3-WT (stably expressed in L6 myoblasts) (mouse) (UniProt Q9JHJ0)
T3 sequence: T1 sequence with A25S

Measured: binding

Tpm1.6 (tropomyosin isoform) (rat (endogenous in L6 myoblasts))
binds: all assays above

Tpm1.7 (tropomyosin isoform) (rat (endogenous in L6 myoblasts))
binds: all assays above

Positions count from the first letter of the chain named. No constants are given. Whether binding was seen depends on the method and setting. In cells and extracts the contact can be indirect. A result given as binding can be weak or reduced; the word gives no strength. Tags and fused reporters may be left off the sequences shown.
